Test results: PubChem BioAssay AID2685 (National Center for Advancing Translational Sciences (NCATS), 2010)
Values joined by “and” are separate entries in the source; they are usually repeats but may differ in a detail not shown here. Identical values can stand only once. The list shows a part of the results. These are further read-outs of the screen, such as a control signal, another cell line or another target. No call is given for them. Compounds called inactive in the main read-out are mostly missing here. Words in brackets tell the shape of the fitted curve; partial curves, single points and poor fits give uncertain potencies.

Assay: qHTS Assay for Lipid Storage Modulators in Drosophila S3 Cells;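 on cell number change: cells counted by Cell Tracker Red CMTPX staining in the red channel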
Settings: BODIPY lipid droplet fluorescence, 18-24 h; for cell number change: measured here: cell count max response, cells fed with added oleic acid
Outline: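 Drosophila S3 cells got compounds at several concentrations plus oleic acid (400 uM solution). Laser-scanning cytometry with 488 nm excitation read lipid droplets at 500-530 nm and cells at 575-640 nm. Percent activity was relative to 20 uM Triacsin C.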

[1] = measured here: lipid fluorescence (Fed channel) AC50, cells fed with added oleic acid
[2] = measured here: cell number channel AC50, cells fed with added oleic acid

Row | Structure (SMILES) | cell number change | AC50 [1] | AC50 [2]
1 | CCCN(CC1CC1)S(=O)(=O)c1ccc(S(N)(=O)=O)cc1 | -38.3% | 18.4 µM [falling, partial curve] | 
2 | CC(=O)Nc1ccc(S(=O)(=O)NCCC(=O)Nc2ccc(C)cn2)cc1 | 18.5% |  | 4.11 µM [rising, partial curve]
3 | O=C(CN1C(=O)c2ccccc2C1=O)Oc1ccc(F)cc1 | 12.3% |  | 
4 | Cc1nn(Cc2ccc(Cl)c(Cl)c2)c(C)c1NC(=O)c1cc(-c2ccco2)on1 | -29% | 16.4 µM [falling, partial curve] | 
5 | O=C(N/N=C/c1c[nH]c2ccccc12)c1[nH]c2ccc(Br)cc2c1-c1ccccc1 | -41% | 16.4 µM [falling, single point] | 16.4 µM [falling, single point]
6 | Cc1ccc(S(=O)(=O)N2CCCCC2)cc1C(=O)Nc1ncn[nH]1 | 0.557% |  | 
7 | CN(CC(=O)N1CCN(Cc2ccccc2)CC1)S(=O)(=O)c1ccc(F)cc1 | 12.3% | 1.3 µM [rising, full curve, poor fit] | 
8 | Fc1ccc(CSc2ncnc3c2oc2ccccc23)cc1 | 3.94% | 5.8 µM [rising, single point] | 
9 | CC1CCN(CCCNC(=O)c2ccc3c(=O)n(CCc4ccccc4)c(=O)[nH]c3c2)CC1 | -25.4% | 3.66 µM [falling, partial curve] | 
10 | COc1ccc(CSc2nnc3n(C)c(=O)c4c5c(sc4n23)CCCC5)cc1 | 2.58% |  | 
11 | CC(C)C(=O)NC(=S)Nc1ccc(S(=O)(=O)NC(C)(C)C)cc1 | -21.2% |  | 
12 | C=CCNC(=O)CCCc1ccccc1 | -7.12% |  | 1.46 µM [falling, full curve, poor fit]
13 | N#C/C(=C\c1ccc(OCC(N)=O)cc1)c1ccccc1 | 2.42% |  | 0.00411 µM [rising, full curve, poor fit]
14 | CCN(c1ccccc1)S(=O)(=O)c1ccc(C(=O)N(CCCN(C)C)c2nc3c(C)cccc3s2)cc1 | 11.3% | 16.4 µM [falling, single point] | 
15 | CC(C)CC(NC(=O)C1CCCCC1)C(=O)N1CCN(c2ccccn2)CC1 (stereo unspecified) | 7.14% | 18.4 µM [rising, partial curve] | 
16 | CC(OC(=O)c1cc[n+]([O-])cc1)C(=O)Nc1ccc(C(N)=O)cc1 (stereo unspecified) | -1.87% | 3.26 µM [rising, partial curve] | 
17 | O=C(Nc1cccc(O)c1)c1ccc(NC(=O)c2cccs2)cc1 | -39% |  | 14.6 µM [falling, single point]
18 | O=C(CNC(=O)c1cccc(OC(F)F)c1)OCn1nnc2ccccc2c1=O | 10.1% | 2.91 µM [rising, partial curve, poor fit] | 2.31 µM [rising, partial curve, poor fit]
19 | Cn1c(Cc2cccs2)nnc1SCC(=O)Nc1ccccc1F | 12.9% |  | 
20 | CC(=O)Nc1ccc(S(=O)(=O)Nc2ccccc2C(=O)N2CCOCC2)cc1 | 2.63% |  | 

Row | Structure (SMILES) | cell number change | AC50 [1] | AC50 [2]
21 | COc1ccc(CC(=O)Nc2ccc3nc(SC)sc3c2)cc1OC | 37.3% | 29.1 µM [rising, single point] | 
22 | NC(=O)Nn1c(CCC(=O)O)ccc1-c1ccc(F)cc1 | 36.5% | 11.6 µM [rising, partial curve] | 
23 | Cc1ccc(S(=O)(=O)N2c3ccccc3OCC2c2ccccc2)cc1 (stereo unspecified) | -30.9% | 20.6 µM [falling, single point] | 18.4 µM [falling, single point]
24 | COc1ccc(CN2CC[C@@H](N3CCOCC3)[C@H](O)C2)cc1F | 33.8% |  | 
25 | Cc1ccc2nc(SCC(=O)Nc3ccc4c(c3)CCC4)[nH]c2c1 | -65.7% | 20.6 µM [falling, single point] | 18.4 µM [falling, single point]
26 | COC(=O)c1cccc(NC(=S)NCc2ccc(Cl)cc2)c1 | 93.2% |  | 
27 | CC(C)CN(Cc1cc2ccccc2[nH]c1=O)C(=O)c1cccnc1 | 22.5% | 2.59 µM [rising, full curve] | 2.59 µM [rising, single point]
28 | NS(=O)(=O)c1ccc(CNC(=O)Cc2ccccc2[N+](=O)[O-])cc1 |  | 0.58 µM [rising, single point] | 
29 | O=C(NC(=S)Nc1c(F)cc(F)cc1Br)c1ccc2c(c1)OCCO2 |  | 5.01 µM [rising, single point] | 3.98 µM [rising, partial curve]
30 | O=C(c1ccc(-n2cnnn2)cc1)N(C1CCCCC1)C1CCCCC1 | -38.3% | 1.16 µM [falling, full curve] | 1.46 µM [falling, full curve, poor fit]
31 | CC1(C)Cc2c(sc(NC(=O)C(=O)N3CCCC3)c2C(N)=O)CO1 | -22.7% | 2.31 µM [falling, partial curve] | 
32 | COc1ccccc1N1CCN(C(=O)CSc2nnc(NC(=O)C(C)C)s2)CC1 | -14.9% | 4.61 µM [falling, full curve] | 
33 | Cc1ccc(C)c(OCCn2nnc3ccccc32)c1 | -9.12% | 6.51 µM [falling, single point] | 
34 | CC(C)C(c1nnnn1Cc1ccc(F)cc1)N1CCN(C(=O)c2ccco2)CC1 (stereo unspecified) | -2.81% | 0.651 µM [falling, single point] | 
35 | CC(C)(C)C(=O)Nc1ccc(C(=O)N/N=C/c2ccccc2OC(=O)c2ccccc2)cc1 | 11.8% | 16.4 µM [falling, single point] | 
36 | Cc1ccc(S(=O)(=O)N2CCC(C(=O)N3CCC(C(=O)NCC4CCCO4)CC3)CC2)cc1 (stereo unspecified) | -10.4% | 3.26 µM [falling, partial curve] | 
37 | CCCCN(C(=O)COC(=O)c1ccc(C=O)cc1)c1c(N)n(CCC)c(=O)[nH]c1=O | 23.2% | 13 µM [rising, partial curve, poor fit] | 
38 | CC(=O)c1nn(-c2cccc(Br)c2)cc1C(=O)c1ccc2ccccc2c1 |  | 9.2 µM [falling, single point] | 
39 | CC1=CC(=O)c2ccccc2C1=O | -33.4% and -44% | 14.6 µM [falling, partial curve] and 16.4 µM [falling, partial curve] | 16.4 µM [falling, single point] and 14.6 µM [falling, partial curve]
40 | O=C(CN1C(=O)NC2(CCCC2)C1=O)Nc1ccccc1 | -15.9% | 23.1 µM [falling, single point] | 

Row | Structure (SMILES) | cell number change | AC50 [1] | AC50 [2]
41 | CCOC(=O)c1c(C)[nH]c(C(=O)OCC(=O)Nc2ccccc2)c1C | -18.2% | 18.4 µM [falling, single point] | 
42 | Cc1ccc(C(=O)Nc2nc3c(s2)CCCC3)o1 | 52.1% |  | 20.6 µM [rising, single point]
43 | COc1ccc(-c2[nH]ncc2/C=N\NC(=O)c2cccs2)cc1OC | -48.7% |  | 29.1 µM [falling, single point]
44 | c1coc(CNc2ncnc3[nH]ncc23)c1 | 9.84% |  | 0.0651 µM [rising, full curve, poor fit]
45 | CCCCCOC(=O)c1[nH]c2c(c1C)C(=O)CC(c1ccco1)C2 (stereo unspecified) | 17.4% | 0.58 µM [rising, full curve] | 
46 | COc1cccc(CNc2ccc(N3CCC(C)CC3)cc2)c1OC | -39.4% | 25.9 µM [falling, partial curve] | 25.9 µM [falling, partial curve, poor fit]
47 | Cn1c(=O)n(CC(=O)NC2CCCCC2)c(=O)c2ccccc21 |  |  | 0.517 µM [rising, single point]
48 | O=c1[nH][nH]c2nc(C(F)(F)F)cc(C(F)(F)F)c12 | 13.7% | 32.6 µM [rising, partial curve] | 
49 | CCN(CC(=O)Nc1ccc(NC(C)=O)cc1)C(=O)c1ccc2c(c1)OCCO2 | -3.58% | 1.64 µM [rising, partial curve, poor fit] | 
50 | CCn1c(C)nc2cc(-c3nc4n(n3)Cc3ccccc3-4)ccc21 | -78.9% | 11.6 µM [falling, partial curve, poor fit] | 11.6 µM [falling, partial curve, poor fit]
51 | CCCOc1ccc(Cc2c(Cl)nc(SC)nc2NC)cc1 | -50.7% | 3.26 µM [falling, partial curve, poor fit] | 9.2 µM [falling, partial curve]
52 | CCC(=O)N1c2ccc(S(=O)(=O)N3CCN(c4cc(C)ccc4C)CC3)cc2CC1C (stereo unspecified) | -13% | 6.51 µM [falling, single point] | 
53 | Cn1c(SCCCC(=O)c2ccccc2)nnc1-c1ccncc1 | 1.37% |  | 
54 | O=C(CCN1C(=O)c2ccccc2C1=O)NCc1ccco1 | -24.3% | 8.2 µM [falling, partial curve] | 
55 | COC(=O)c1ccc(NC(=O)CCN2CCN(c3ccccc3)CC2)cc1 | 9.21% | 0.0461 µM [rising, full curve, poor fit] | 
56 | FC(F)(F)c1cnc(N2CCC(=NOCc3ccc(Cl)cc3)CC2)c(Cl)c1 | 21.5% | 4.61 µM [falling, single point] | 
57 | CSc1ccc(-c2nc3cnccn3c2Nc2ccc3c(c2)OCO3)cc1 | 35.5% | 16.4 µM [rising, partial curve] | 1.46 µM [rising, partial curve]
58 | Cc1nc2cc(NC(=O)N3c4ccccc4CC3C)ccc2o1 (stereo unspecified) |  | 1.46 µM [rising, partial curve, poor fit] | 
59 | Cc1cc(=O)[nH]c(N/N=C/c2c(C)nn(-c3ccccc3)c2Cl)n1 | -11.8% | 3.26 µM [falling, partial curve, poor fit] | 
